US9932621B2, “Modulators for Sirt5 and assays for screening same” (CORNELL UNIVERSITY, priority 2010, dated 2018)
Residue numbers refer to the chain shown, from its start. For part of these data: Part of at least one peptide drawing is inferred or uncertain, most often the ends. For part of these data: The name of at least one read-out is uncertain. Where no end group is shown, it is not given here.

Tests used:
Type in all cases: biochemical
Sirt5 [1] = molecular target: T1, Sirt5 (Homo sapiens, UniProt Q9NXA8); assay: Sirt5 inhibition IC50 (desuccinylase, HPLC-based assay); conditions: at 100 mM
T1 construct: made in house
T1 sequence (Q9NXA8 37-310): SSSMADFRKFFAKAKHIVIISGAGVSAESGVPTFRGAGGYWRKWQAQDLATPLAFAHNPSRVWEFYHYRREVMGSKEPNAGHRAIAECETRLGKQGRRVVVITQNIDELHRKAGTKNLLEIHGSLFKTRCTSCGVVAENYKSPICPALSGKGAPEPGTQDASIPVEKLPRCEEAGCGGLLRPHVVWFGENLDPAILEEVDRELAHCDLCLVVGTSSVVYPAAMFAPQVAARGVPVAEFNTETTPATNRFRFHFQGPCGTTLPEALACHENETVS
Method: All assays were carried out under identical enzyme (1 μM) and substrate (0.3 mM acyl peptide, 0.5 mM NAD) concentrations.

Sirt5 H158Y = molecular target: T2, Sirt5 H158Y (Homo sapiens, UniProt Q9NXA8, H158Y); assay: Deacylation kinetics by HPLC, mutant Sirt5 H158Y
T2 sequence (Q9NXA8 37-310 H158Y): T1 sequence (Q9NXA8 37-310) with H122Y
Method: (§1) For determination of kcat and Km, human Sirt1, Sirt2, Sirt3 and Sirt5 were measured by detecting the deacylated peptide from H3K9 acyl peptides using HPLC. Purified Sirtuin was incubated with 1.0 mM of NAD in 20 mM Tris-HCl buffer (pH 7.5) containing acyl peptides (0-750 μM) and 1 mM DTT in 60 μL reactions at 37° C. The reactions were stopped with 100 mM HCl and 160 mM acetic acid, analyzed by HPLC with a reverse phase C18 column (250×4.6 mm, 90 A, 10 μm, GraceVydac, Southborough, Mass.), with a linear gradient of 0% to 20% B for 10 min (1 mL/min). […] The kcat and Km values were obtained by curve-fitting the Vinitial/[E] versus [S] plot using KaleidaGraph. For Sirt5 R105M, the observed second order rate constant, kobs (rate/([Sirtuin][NAD])) was detected instead of kcat and Km because of the very weak deacylation activity. The experiments were done in duplicate.

Sirt5 R105M = molecular target: T3, Sirt5 R105M (Homo sapiens, UniProt Q9NXA8, R105M); assay: Deacylation kinetics by HPLC, mutant Sirt5 R105M; conditions: observed second order rate constant kobs
T3 sequence (Q9NXA8 37-310 R105M): T1 sequence (Q9NXA8 37-310) with R69M
Method: For determination of kcat and Km, human Sirt1, Sirt2, Sirt3 and Sirt5 were measured by detecting the deacylated peptide from H3K9 acyl peptides using HPLC. […] The reactions were stopped with 100 mM HCl and 160 mM acetic acid, analyzed by HPLC with a reverse phase C18 column (250×4.6 mm, 90 A, 10 μm, GraceVydac, Southborough, Mass.), with a linear gradient of 0% to 20% B for 10 min (1 mL/min). […] The kcat and Km values were obtained by curve-fitting the Vinitial/[E] versus [S] plot using KaleidaGraph. […] The experiments were done in duplicate.

Sirt5 Y102F = molecular target: T4, Sirt5 Y102F (Homo sapiens, UniProt Q9NXA8, Y102F); assay: Deacylation kinetics by HPLC, mutant Sirt5 Y102F
T4 sequence (Q9NXA8 37-310 Y102F): T1 sequence (Q9NXA8 37-310) with Y66F
Method: as §1

Sirt5 [2] = molecular target: T1, Sirt5; assay: Deacylation kinetics (kcat, Km) by HPLC, Sirt5; conditions: wild-type Sirt5, Table 3
Method: as §1

Sirt5 [3] = molecular target: T1, Sirt5; assay: Sirt5 deacetylation, demalonylation, desuccinylation kinetics on WW-tagged peptides by HPLC; conditions: peptides with two C-terminal tryptophan residues, <2 estimated from detection limit
Method: as §1
For comparing the deacetylation, demalonylation and desuccinylation activities of Sirt5 on different peptide backbones (results shown in Table 2), histone H3, GDH and ACS2 peptides with two tryptophan residues at the C-terminal were used to allow better detection and quantification on HPLC. The determination of kcat and Km was carried out essentially the same as mentioned above with slight modifications. […] The peptides were detected and quantified on the LC by the absorption at 280 nm.

For `CC(=S)NCCCC[C@H](NC(=O)[C@H](CCCNC(=N)N)NC(=O)[C@H](C)NC(=O)[C@@H](NC(=O)[C@H](CCC(N)=O)NC(=O)[C@@H](N)CCCCN)[C@@H](C)O)C(=O)N[C@@H](CO)C(=O)N[C@H](C(=O)NCC(=O)NCC(=O)N[C@@H](CCCCN)C(=O)N[C@@H](C)C(=O)O)[C@@H](C)O` [H3K9 TAc], the “inhibition of Sirt5” value (Sirt5 [1]) was “did not inhibit”.

For “H3K9 succinyl peptide: synthesized H3K9 succinyl lysine peptide, Sirt5 substrate (KQTARK; succinyl-lysine, C-terminal AMC; MOD_RES 6 SU…, 7-AMINO-4-METHYLCOUMARIN ATTACHED)”, the kcat/Km (Sirt5 H158Y) was 75 s^−1M^−1, the kcat/Km (Sirt5 R105M) was 0.9 s^−1M^−1 and the kcat/Km (Sirt5 Y102F) was 397 s^−1M^−1. The kcat/Km (Sirt5 [2]) was 710 s^−1M^−1.

For “KQTARK(Ac)STGGWW [H3 K9 (4-13 + WW) acetyl peptide]”, the kcat/Km (Sirt5 [3]) was 7.8 s^−1M^−1.
